Test results reported in paper doi:10.1101/2025.11.21.689678 (bioRxiv, 2025).
These are yes or no findings as the source states them, for the method shown. Binding seen in cells or lysates may run through a third protein. A result given as binding can be weak or reduced; the word gives no strength. For some assays here: Sequences can lack the tags named with a protein.

By UniProt entry, the sequences of proteins in these tests, tags left out. Where a name states a change or a piece, a line headed by the entry shows the natural chain unless it says otherwise.
UniProt Q13263: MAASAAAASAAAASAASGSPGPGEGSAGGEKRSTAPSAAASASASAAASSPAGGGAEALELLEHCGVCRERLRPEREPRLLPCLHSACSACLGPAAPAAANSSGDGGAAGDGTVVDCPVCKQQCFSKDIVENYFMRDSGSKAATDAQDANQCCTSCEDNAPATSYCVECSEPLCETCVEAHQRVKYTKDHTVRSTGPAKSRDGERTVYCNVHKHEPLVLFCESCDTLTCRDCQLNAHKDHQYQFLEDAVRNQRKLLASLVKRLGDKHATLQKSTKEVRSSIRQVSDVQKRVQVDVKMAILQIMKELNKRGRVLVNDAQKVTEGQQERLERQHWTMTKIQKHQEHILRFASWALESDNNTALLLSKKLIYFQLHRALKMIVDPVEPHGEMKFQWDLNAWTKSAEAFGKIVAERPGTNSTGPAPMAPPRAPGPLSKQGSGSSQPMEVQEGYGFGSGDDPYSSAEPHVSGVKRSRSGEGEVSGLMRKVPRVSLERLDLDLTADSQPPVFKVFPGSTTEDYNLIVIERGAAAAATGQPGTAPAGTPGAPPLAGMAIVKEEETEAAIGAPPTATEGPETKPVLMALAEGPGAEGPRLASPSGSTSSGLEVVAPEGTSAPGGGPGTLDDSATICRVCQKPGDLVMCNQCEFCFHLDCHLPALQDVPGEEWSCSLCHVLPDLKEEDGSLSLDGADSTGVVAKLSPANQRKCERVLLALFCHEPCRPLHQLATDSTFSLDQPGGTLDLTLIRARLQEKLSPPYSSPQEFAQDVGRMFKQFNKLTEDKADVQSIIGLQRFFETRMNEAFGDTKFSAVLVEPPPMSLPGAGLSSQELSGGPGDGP
UniProt P43360: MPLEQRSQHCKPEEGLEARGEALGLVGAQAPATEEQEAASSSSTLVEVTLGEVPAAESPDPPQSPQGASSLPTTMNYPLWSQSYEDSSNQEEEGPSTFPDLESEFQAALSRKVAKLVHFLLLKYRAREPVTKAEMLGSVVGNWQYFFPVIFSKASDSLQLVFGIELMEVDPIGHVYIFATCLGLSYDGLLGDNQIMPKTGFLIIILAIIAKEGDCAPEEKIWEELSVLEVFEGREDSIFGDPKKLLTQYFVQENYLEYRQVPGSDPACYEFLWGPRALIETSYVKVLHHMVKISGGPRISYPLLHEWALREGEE
UniProt P28074: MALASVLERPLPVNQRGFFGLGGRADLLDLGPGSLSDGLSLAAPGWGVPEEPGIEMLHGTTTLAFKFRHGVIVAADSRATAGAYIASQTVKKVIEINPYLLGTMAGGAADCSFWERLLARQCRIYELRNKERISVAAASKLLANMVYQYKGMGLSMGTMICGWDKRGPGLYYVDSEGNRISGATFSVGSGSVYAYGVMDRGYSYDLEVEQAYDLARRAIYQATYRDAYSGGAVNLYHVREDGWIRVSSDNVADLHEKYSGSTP

How the values were obtained:
Test in all cases: co-IP
[1] = biological target: Flag-TRIM28 (H1299) (human) (UniProt Q13263)
[2] = biological target: Flag-TRIM28 (HEK293T) (human) (UniProt Q13263)
[3] = biological target: Flag-MAGEA6 MutB (human (cDNA from H1299 cells)) (UniProt P43360)
[4] = biological target: Flag-MAGEA6 MutA (human (cDNA from H1299 cells)) (UniProt P43360)

endogenous PSMB5 (H1299) (from UniProt P28074)
binding [1]: binds

endogenous PSMB5 (HEK293T) (from UniProt P28074)
binding [2]: binds

endogenous TRIM28 (HEK293T) (from UniProt Q13263 1-835)
binding [3]: binds

B1: HA-ALKBH2 (HEK293T) (protein, UniProt Q6NS38 1-261)
chain: MDRFLVKGAQGGLLRKQEEQEPTGEEPAVLGGDKESTRKRPRREAPGNGGHSAGPSWRHIRAEGLDCSYTVLFGKAEADEIFQELEKEVEYFTGALARVQVFGKWHSVPRKQATYGDAGLTYTFSGLTLSPKPWIPVLERIRDHVSGVTGQTFNFVLINRYKDGCDHIGEHRDDERELAPGSPIASVSFGACRDFVFRHKDSRGKSPSRRVAVVRLPLAHGSLLMMNHPTNTHWYHSLPVRKKVLAPRVNLTFRKILLTKK
binding [4]: binds
binding [3]: binds
